# ± gives the standard deviation of the averaged measurements. The list shows a part of the results. Only hits are listed; about a third recur on repeated control peptides.
# By UniProt entry, the sequences of proteins in these tests, tags left out.
# DIDO1, Q9BTC0, UniProt Q9BTC0, whole entry: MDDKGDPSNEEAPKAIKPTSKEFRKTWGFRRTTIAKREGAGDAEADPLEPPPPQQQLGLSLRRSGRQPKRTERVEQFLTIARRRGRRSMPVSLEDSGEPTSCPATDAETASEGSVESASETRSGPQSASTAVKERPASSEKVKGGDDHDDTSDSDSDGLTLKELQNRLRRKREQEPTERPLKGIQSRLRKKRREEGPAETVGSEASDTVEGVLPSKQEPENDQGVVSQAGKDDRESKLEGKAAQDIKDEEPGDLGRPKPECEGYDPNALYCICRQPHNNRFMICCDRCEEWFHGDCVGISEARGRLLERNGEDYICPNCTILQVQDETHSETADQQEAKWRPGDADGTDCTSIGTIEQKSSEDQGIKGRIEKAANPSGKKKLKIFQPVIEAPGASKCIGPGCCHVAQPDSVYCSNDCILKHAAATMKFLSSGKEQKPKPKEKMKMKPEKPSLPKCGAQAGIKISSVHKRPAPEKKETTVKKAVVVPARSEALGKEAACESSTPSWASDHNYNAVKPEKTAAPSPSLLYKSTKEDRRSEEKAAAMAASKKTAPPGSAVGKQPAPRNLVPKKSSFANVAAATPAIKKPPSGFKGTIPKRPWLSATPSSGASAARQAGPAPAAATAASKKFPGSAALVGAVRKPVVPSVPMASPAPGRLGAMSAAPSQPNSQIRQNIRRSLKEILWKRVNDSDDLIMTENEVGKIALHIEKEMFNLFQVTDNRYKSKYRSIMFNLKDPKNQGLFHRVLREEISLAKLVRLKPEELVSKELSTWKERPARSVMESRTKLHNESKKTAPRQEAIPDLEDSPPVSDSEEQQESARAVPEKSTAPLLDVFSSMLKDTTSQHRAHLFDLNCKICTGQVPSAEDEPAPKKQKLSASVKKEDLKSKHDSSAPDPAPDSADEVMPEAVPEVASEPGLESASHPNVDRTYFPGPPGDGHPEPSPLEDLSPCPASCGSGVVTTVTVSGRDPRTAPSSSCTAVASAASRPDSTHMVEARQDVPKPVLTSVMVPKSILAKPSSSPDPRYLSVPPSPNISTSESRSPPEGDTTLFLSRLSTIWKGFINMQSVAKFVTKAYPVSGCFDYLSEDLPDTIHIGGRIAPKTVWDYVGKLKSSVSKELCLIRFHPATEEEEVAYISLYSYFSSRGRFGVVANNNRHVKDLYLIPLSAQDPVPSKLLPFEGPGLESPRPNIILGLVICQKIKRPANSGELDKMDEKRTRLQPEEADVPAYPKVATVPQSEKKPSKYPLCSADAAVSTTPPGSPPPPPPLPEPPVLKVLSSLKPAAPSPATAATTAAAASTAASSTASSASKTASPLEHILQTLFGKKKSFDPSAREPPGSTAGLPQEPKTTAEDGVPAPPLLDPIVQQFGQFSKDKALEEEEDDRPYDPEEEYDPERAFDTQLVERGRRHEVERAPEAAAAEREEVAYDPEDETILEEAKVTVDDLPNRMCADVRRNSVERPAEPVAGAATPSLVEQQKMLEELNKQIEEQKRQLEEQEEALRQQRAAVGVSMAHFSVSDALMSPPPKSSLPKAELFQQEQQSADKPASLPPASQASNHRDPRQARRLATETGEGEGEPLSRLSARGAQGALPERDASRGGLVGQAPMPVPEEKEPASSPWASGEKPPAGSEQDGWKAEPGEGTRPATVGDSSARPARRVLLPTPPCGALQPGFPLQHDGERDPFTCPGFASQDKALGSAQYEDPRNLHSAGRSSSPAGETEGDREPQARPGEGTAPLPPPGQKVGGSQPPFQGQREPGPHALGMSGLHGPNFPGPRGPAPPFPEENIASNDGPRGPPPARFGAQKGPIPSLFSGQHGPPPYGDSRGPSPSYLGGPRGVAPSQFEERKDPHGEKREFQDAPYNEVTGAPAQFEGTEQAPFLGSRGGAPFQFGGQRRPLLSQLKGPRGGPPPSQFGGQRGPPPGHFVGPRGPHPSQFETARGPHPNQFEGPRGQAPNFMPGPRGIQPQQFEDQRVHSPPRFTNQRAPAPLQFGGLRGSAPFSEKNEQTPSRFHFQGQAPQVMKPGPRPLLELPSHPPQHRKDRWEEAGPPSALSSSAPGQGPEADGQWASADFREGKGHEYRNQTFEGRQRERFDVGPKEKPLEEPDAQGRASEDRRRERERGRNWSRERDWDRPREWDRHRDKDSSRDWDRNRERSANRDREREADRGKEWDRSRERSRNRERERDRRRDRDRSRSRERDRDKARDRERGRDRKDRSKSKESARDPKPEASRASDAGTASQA
# EPB41L3, Q9Y2J2, UniProt Q9Y2J2, whole entry: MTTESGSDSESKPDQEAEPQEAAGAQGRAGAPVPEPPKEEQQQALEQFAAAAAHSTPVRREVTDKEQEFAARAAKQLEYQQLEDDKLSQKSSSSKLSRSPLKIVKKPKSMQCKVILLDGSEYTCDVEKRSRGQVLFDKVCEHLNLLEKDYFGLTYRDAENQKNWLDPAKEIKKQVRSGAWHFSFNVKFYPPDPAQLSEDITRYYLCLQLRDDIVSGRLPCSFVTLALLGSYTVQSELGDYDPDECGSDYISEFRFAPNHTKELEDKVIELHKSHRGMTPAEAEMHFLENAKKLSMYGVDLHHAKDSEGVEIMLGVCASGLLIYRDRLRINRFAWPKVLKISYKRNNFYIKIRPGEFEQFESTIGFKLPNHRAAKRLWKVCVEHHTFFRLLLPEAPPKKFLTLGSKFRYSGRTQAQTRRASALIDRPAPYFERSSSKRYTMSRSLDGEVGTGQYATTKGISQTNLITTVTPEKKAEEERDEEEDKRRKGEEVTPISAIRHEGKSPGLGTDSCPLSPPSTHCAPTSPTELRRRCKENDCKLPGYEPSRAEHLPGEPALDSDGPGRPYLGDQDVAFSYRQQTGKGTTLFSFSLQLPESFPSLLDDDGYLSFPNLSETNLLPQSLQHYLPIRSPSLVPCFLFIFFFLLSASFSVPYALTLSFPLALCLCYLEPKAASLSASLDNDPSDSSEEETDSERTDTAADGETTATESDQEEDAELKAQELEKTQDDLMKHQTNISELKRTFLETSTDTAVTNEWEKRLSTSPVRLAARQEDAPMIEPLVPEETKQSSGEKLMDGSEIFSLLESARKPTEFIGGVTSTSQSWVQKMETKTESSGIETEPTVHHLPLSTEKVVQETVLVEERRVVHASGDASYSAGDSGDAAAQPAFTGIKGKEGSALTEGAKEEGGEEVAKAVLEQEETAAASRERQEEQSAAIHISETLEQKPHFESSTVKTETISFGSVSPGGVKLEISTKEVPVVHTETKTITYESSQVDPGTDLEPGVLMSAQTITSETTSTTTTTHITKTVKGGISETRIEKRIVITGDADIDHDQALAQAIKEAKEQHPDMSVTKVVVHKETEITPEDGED
# CNOT3, O75175, UniProt O75175, whole entry: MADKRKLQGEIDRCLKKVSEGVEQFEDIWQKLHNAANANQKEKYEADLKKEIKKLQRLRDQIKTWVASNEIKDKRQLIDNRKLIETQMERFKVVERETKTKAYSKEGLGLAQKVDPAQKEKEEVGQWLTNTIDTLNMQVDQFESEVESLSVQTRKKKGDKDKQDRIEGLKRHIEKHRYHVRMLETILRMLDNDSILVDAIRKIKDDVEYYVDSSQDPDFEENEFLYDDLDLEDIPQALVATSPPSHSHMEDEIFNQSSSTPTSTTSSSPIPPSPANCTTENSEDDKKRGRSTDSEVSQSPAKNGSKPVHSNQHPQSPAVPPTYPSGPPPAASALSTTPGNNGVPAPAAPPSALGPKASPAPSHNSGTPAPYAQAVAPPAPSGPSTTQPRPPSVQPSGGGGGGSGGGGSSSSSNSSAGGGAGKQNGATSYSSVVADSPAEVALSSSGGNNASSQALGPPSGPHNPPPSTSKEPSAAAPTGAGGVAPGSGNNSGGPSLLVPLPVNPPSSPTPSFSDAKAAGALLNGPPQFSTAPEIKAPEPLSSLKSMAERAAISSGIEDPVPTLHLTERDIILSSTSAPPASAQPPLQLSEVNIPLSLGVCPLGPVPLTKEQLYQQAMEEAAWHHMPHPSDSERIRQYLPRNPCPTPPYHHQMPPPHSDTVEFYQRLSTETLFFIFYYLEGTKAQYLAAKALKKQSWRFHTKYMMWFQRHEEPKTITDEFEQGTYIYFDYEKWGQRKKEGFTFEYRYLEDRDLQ
# CHMP2B, Q9UQN3, UniProt Q9UQN3, whole entry: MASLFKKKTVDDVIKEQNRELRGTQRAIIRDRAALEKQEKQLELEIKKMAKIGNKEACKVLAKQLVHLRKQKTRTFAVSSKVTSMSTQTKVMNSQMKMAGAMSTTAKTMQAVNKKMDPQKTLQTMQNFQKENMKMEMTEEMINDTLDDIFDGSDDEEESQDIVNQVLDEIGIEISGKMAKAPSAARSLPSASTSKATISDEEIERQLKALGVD
# RCC2, Q9P258, UniProt Q9P258, whole entry: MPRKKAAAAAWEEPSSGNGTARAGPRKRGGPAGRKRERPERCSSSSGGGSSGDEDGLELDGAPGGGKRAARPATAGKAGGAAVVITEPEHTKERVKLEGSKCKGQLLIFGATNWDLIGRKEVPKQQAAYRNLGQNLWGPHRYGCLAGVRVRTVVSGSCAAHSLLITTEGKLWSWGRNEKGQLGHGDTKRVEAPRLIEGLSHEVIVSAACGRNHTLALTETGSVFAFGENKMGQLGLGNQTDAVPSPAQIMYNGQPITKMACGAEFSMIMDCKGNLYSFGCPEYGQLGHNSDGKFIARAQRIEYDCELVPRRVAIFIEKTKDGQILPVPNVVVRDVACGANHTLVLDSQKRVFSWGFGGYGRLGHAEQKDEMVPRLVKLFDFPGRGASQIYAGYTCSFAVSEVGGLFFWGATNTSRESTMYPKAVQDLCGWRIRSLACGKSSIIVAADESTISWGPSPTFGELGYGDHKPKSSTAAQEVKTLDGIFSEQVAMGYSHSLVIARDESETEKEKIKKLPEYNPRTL
# YY1, P25490, UniProt P25490, whole entry: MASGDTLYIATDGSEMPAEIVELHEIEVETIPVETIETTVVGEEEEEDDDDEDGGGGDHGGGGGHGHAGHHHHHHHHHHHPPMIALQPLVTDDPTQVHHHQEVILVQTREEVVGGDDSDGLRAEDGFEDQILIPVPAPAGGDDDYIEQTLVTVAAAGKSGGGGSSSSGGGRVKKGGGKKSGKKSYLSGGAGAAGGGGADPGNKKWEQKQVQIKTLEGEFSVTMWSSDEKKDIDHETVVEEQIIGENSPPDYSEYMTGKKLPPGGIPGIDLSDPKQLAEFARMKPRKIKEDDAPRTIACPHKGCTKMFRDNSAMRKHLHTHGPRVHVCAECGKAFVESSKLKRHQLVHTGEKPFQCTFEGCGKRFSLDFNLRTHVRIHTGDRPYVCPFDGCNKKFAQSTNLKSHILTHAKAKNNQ
# TPX2, Q9ULW0, UniProt Q9ULW0, whole entry: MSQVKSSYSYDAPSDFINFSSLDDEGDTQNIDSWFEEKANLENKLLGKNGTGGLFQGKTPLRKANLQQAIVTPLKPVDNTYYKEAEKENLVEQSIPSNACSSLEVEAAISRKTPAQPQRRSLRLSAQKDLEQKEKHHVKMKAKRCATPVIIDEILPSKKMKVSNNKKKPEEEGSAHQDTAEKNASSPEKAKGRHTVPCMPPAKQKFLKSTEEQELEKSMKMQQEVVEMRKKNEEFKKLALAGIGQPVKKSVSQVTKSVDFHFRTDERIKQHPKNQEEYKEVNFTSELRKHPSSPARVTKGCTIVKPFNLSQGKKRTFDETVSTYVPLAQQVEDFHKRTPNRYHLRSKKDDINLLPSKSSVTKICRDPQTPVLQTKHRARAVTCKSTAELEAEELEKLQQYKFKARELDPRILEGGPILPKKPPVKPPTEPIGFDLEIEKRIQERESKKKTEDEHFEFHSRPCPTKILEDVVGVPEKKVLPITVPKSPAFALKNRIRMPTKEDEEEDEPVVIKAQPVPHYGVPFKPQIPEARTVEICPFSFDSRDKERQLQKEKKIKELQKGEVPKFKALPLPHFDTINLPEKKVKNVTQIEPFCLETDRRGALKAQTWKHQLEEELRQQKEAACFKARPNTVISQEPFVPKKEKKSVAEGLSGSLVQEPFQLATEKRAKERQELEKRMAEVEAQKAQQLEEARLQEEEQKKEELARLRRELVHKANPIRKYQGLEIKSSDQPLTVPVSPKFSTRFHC
# COIL, P38432, UniProt P38432, whole entry: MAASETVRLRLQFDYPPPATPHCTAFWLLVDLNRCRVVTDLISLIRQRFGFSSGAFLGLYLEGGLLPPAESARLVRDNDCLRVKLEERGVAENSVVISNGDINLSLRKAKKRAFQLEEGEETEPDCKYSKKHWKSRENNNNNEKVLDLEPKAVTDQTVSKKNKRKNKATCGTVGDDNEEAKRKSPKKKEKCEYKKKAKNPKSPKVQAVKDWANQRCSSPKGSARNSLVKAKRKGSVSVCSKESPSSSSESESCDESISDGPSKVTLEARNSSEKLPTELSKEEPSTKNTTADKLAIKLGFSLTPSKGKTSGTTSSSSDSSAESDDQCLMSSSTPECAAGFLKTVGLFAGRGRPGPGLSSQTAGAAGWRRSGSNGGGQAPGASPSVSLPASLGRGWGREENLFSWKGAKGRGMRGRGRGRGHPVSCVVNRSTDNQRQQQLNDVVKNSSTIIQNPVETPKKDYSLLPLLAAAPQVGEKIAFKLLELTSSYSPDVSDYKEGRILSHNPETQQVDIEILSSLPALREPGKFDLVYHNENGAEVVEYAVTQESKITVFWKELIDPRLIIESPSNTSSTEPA
# B1: MRPL33 (peptide)
# chain: MFLSAVFFAKSKSKN
# B2: SLCO5A1 (peptide)
# chain: RLPQATARRGTPSRA
# B3: DANCR (peptide)
# chain: PQDHSAPANSMQLTL
# B4: THAP7 (peptide)
# chain: MARACRVTAPPPAAA
# B5: RP11-620J15.3 (peptide)
# chain: LCNHMEVCLILKLKK
# B6: TUG1 (peptide)
# chain: LLLWHPALGAQARPP
# Columns and labels:
# Test in all cases: PRISMA enrichment of interactor (LFQ) in peptide spot vs all other peptide spots (log2 fold change); higher = stronger / more specific binding of the interactor to the peptide
# [1] = target: BAIAP2, Q9UQB8
# Description: (§1)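 PRISMA: 15-aa overlapping tiles (offset 8 aa) of 60 microproteins, plus SOS1/GLUT1 control peptides, were spot-synthesized on cellulose membranes in triplicate. Membranes were incubated with benzonase-treated HEK293T lysate, and bound proteins were identified by LC-MS/MS with LFQ. Enrichment is the log2 fold change of each protein in one spot versus all other spots. Only interactors passing the significance cutoff are listed.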
# [2] = target: GTF3C5, Q9Y5Q8
# Description: as §1
# [3] = target: LMF2, Q9BU23
# Description: as §1
# [4] = target: PDCL3, Q9H2J4
# Description: as §1
# [5] = target: RNPS1, Q15287
# Description: as §1
# [6] = target: AURKB, Q96GD4
# Description: as §1
# [7] = target: C1QBP, Q07021
# Description: as §1
# [8] = target: CD2AP, Q9Y5K6
# Description: as §1
# [9] = target: DIDO1, Q9BTC0
# Description: as §1
# [10] = target: DMAC2, Q9NW81
# Description: as §1
# [11] = target: EPB41L3, Q9Y2J2
# Description: as §1
# [12] = target: KLF16, Q9BXK1
# Description: as §1
# [13] = target: LAMA5, O15230
# Description: as §1
# [14] = target: MDC1, Q14676
# Description: as §1
# [15] = target: MLF2, Q15773
# Description: as §1
# [16] = target: MPDU1, O75352
# Description: as §1
# [17] = target: MRPL27, Q9P0M9
# Description: as §1
# [18] = target: NAP1L1, P55209
# Description: as §1
# [19] = target: NME1-NME2
# Description: as §1
# [20] = target: PDS5A, Q29RF7
# Description: as §1
# [21] = target: PWP1, Q13610
# Description: as §1
# [22] = target: RAB14, P61106
# Description: as §1
# [23] = target: RAB3GAP2, Q9H2M9
# Description: as §1
# [24] = target: RCN2, Q14257
# Description: as §1
# [25] = target: SGPP1, Q9BX95
# Description: as §1
# [26] = target: TMEM126A, Q9H061
# Description: as §1
# [27] = target: UBXN7, O94888
# Description: as §1
# [28] = target: YTHDF3, Q7Z739
# Description: as §1
# [29] = target: ZNF146, Q15072
# Description: as §1
# [30] = target: BANF1, O75531
# Description: as §1
# [31] = target: BOD1, Q96IK1
# Description: as §1
# [32] = target: CACNA1D, Q01668
# Description: as §1
# [33] = target: CNOT3, O75175
# Description: as §1
# [34] = target: DRG1, Q9Y295
# Description: as §1
# [35] = target: FADS1, O60427
# Description: as §1
# [36] = target: MACF1
# Description: as §1
# [37] = target: PDK1, Q15118
# Description: as §1
# [38] = target: PFKM, P08237
# Description: as §1
# [39] = target: SLC35E1, Q96K37
# Description: as §1
# [40] = target: TRAM1, Q15629
# Description: as §1
# [41] = target: BAG2, O95816
# Description: as §1
# [42] = target: C1orf131, Q8NDD1
# Description: as §1
# [43] = target: CDCA7L, Q96GN5
# Description: as §1
# [44] = target: CHMP2B, Q9UQN3
# Description: as §1
# [45] = target: COX6C, P09669
# Description: as §1
# [46] = target: GLYR1, Q49A26
# Description: as §1
# [47] = target: LAP3, P28838
# Description: as §1
# [48] = target: MAP7D1, Q3KQU3
# Description: as §1
# [49] = target: MRPL43, Q8N983
# Description: as §1
# [50] = target: MRPS24, Q96EL2
# Description: as §1
# [51] = target: NOP53, Q9NZM5
# Description: as §1
# [52] = target: NOP56, O00567
# Description: as §1
# [53] = target: PNISR, Q8TF01
# Description: as §1
# [54] = target: PRIM1, P49642
# Description: as §1
# [55] = target: PSMD8, P48556
# Description: as §1
# [56] = target: PYM1, Q9BRP8
# Description: as §1
# [57] = target: RCC2, Q9P258
# Description: as §1
# [58] = target: RRP12, Q5JTH9
# Description: as §1
# [59] = target: RRP9, O43818
# Description: as §1
# [60] = target: YY1, P25490
# Description: as §1
# [61] = target: ZC3HAV1, Q7Z2W4
# Description: as §1
# [62] = target: BASP1, P80723
# Description: as §1
# [63] = target: BMS1, Q14692
# Description: as §1
# [64] = target: CSNK2A2, P19784
# Description: as §1
# [65] = target: DDX27, Q96GQ7
# Description: as §1
# [66] = target: DRG2, P55039
# Description: as §1
# [67] = target: EHD1, Q9H4M9
# Description: as §1
# [68] = target: MARCKSL1, P49006
# Description: as §1
# [69] = target: PLAA, Q9Y263
# Description: as §1
# [70] = target: RNF213, Q63HN8
# Description: as §1
# [71] = target: SEPTIN9, Q9UHD8
# Description: as §1
# [72] = target: SF3B2, Q13435
# Description: as §1
# [73] = target: SRRT, Q9BXP5
# Description: as §1
# [74] = target: TOMM40, O96008
# Description: as §1
# [75] = target: TPX2, Q9ULW0
# Description: as §1
# [76] = target: XPO7, Q9UIA9
# Description: as §1
# [77] = target: BAZ1A, Q9NRL2
# Description: as §1
# [78] = target: BCOR, Q6W2J9
# Description: as §1
# [79] = target: CNPY2, Q9Y2B0
# Description: as §1
# [80] = target: COIL, P38432
# Description: as §1
# [81] = target: DDX20, Q9UHI6
# Description: as §1
# [82] = target: EXOSC10, Q01780
# Description: as §1
# [83] = target: FAM98B, Q52LJ0
# Description: as §1
# [84] = target: GNB2, P62879
# Description: as §1
# [85] = target: ISG20L2, Q9H9L3
# Description: as §1
# [86] = target: MT-ATP6, P00846
# Description: as §1
# [87] = target: NSFL1C, Q9UNZ2
# Description: as §1
# [88] = target: PDCD5, O14737
# Description: as §1
# [89] = target: RER1, O15258
# Description: as §1
# [90] = target: RPP38, P78345
# Description: as §1
# [91] = target: USP5, P45974
# Description: as §1
binder,measurement,setting,value
B1,PRISMA enrichment of interactor (log2),[1],5.77
same,PRISMA enrichment of interactor (log2),[2],4.34
same,PRISMA enrichment of interactor (log2),[3],4.89
same,PRISMA enrichment of interactor (log2),[4],8.5
same,PRISMA enrichment of interactor (log2),[5],6.37
B2,PRISMA enrichment of interactor (log2),[6],6.71
same,PRISMA enrichment of interactor (log2),[7],6.74
same,PRISMA enrichment of interactor (log2),[8],6.3
same,PRISMA enrichment of interactor (log2),[9],4.29
same,PRISMA enrichment of interactor (log2),[10],5.47
same,PRISMA enrichment of interactor (log2),[11],3.92
same,PRISMA enrichment of interactor (log2),[12],9.28
same,PRISMA enrichment of interactor (log2),[13],6.14
same,PRISMA enrichment of interactor (log2),[14],7.49
same,PRISMA enrichment of interactor (log2),[15],4.23
same,PRISMA enrichment of interactor (log2),[16],5.17
same,PRISMA enrichment of interactor (log2),[17],8.11
same,PRISMA enrichment of interactor (log2),[18],5.27 ± 0.89
same,PRISMA enrichment of interactor (log2),[19],7.02
same,PRISMA enrichment of interactor (log2),[20],6.86
same,PRISMA enrichment of interactor (log2),[21],4.67
same,PRISMA enrichment of interactor (log2),[22],5.16
same,PRISMA enrichment of interactor (log2),[23],5.51
same,PRISMA enrichment of interactor (log2),[24],4.64
same,PRISMA enrichment of interactor (log2),[25],5.08
same,PRISMA enrichment of interactor (log2),[26],8.66
same,PRISMA enrichment of interactor (log2),[27],4.89
same,PRISMA enrichment of interactor (log2),[28],4.41
same,PRISMA enrichment of interactor (log2),[29],8.69
B3,PRISMA enrichment of interactor (log2),[30],5.32
same,PRISMA enrichment of interactor (log2),[31],4.75
same,PRISMA enrichment of interactor (log2),[32],9.92
same,PRISMA enrichment of interactor (log2),[33],4.87
same,PRISMA enrichment of interactor (log2),[34],4.33
same,PRISMA enrichment of interactor (log2),[35],4.24
same,PRISMA enrichment of interactor (log2),[36],10.2
same,PRISMA enrichment of interactor (log2),[37],7.06
same,PRISMA enrichment of interactor (log2),[38],4.65
same,PRISMA enrichment of interactor (log2),[39],3.65
same,PRISMA enrichment of interactor (log2),[40],5.28
B4,PRISMA enrichment of interactor (log2),[41],4.67
same,PRISMA enrichment of interactor (log2),[42],4.8
same,PRISMA enrichment of interactor (log2),[43],5.99
same,PRISMA enrichment of interactor (log2),[44],6.32
same,PRISMA enrichment of interactor (log2),[45],5.15
same,PRISMA enrichment of interactor (log2),[46],6.88
same,PRISMA enrichment of interactor (log2),[47],4.44
same,PRISMA enrichment of interactor (log2),[48],5.51
same,PRISMA enrichment of interactor (log2),[49],6.62
same,PRISMA enrichment of interactor (log2),[50],4.96
same,PRISMA enrichment of interactor (log2),[51],5.69
same,PRISMA enrichment of interactor (log2),[52],5.19
same,PRISMA enrichment of interactor (log2),[53],4.47
same,PRISMA enrichment of interactor (log2),[54],5.08
same,PRISMA enrichment of interactor (log2),[55],8.72
same,PRISMA enrichment of interactor (log2),[56],6.2
same,PRISMA enrichment of interactor (log2),[57],4.94
same,PRISMA enrichment of interactor (log2),[58],6.01
same,PRISMA enrichment of interactor (log2),[59],6.62
same,PRISMA enrichment of interactor (log2),[60],7.11
same,PRISMA enrichment of interactor (log2),[61],5.02
B5,PRISMA enrichment of interactor (log2),[62],4.4
same,PRISMA enrichment of interactor (log2),[63],5.61
same,PRISMA enrichment of interactor (log2),[64],5.7
same,PRISMA enrichment of interactor (log2),[65],5.28
same,PRISMA enrichment of interactor (log2),[66],4.25
same,PRISMA enrichment of interactor (log2),[67],5.54
same,PRISMA enrichment of interactor (log2),[68],4.47
same,PRISMA enrichment of interactor (log2),[4],8.57
same,PRISMA enrichment of interactor (log2),[69],8.31
same,PRISMA enrichment of interactor (log2),[70],8.77
same,PRISMA enrichment of interactor (log2),[71],4.34
same,PRISMA enrichment of interactor (log2),[72],6.35
same,PRISMA enrichment of interactor (log2),[73],6.19
same,PRISMA enrichment of interactor (log2),[74],4.99
same,PRISMA enrichment of interactor (log2),[75],4.87
same,PRISMA enrichment of interactor (log2),[76],4.66
B6,PRISMA enrichment of interactor (log2),[77],4.43
same,PRISMA enrichment of interactor (log2),[78],4.35
same,PRISMA enrichment of interactor (log2),[79],5.01
same,PRISMA enrichment of interactor (log2),[80],5.95
same,PRISMA enrichment of interactor (log2),[81],5.15
same,PRISMA enrichment of interactor (log2),[82],5.23
same,PRISMA enrichment of interactor (log2),[83],6.47
same,PRISMA enrichment of interactor (log2),[84],5.13
same,PRISMA enrichment of interactor (log2),[85],8.83
same,PRISMA enrichment of interactor (log2),[86],4.58
same,PRISMA enrichment of interactor (log2),[87],6.54
same,PRISMA enrichment of interactor (log2),[88],4.96
same,PRISMA enrichment of interactor (log2),[89],4.32
same,PRISMA enrichment of interactor (log2),[90],7.83
same,PRISMA enrichment of interactor (log2),[91],4.82

# Four records picked at random from the list so far, as already listed:
binder,measurement,setting,value
B5,PRISMA enrichment of interactor (log2),[63],5.61
B3,PRISMA enrichment of interactor (log2),[31],4.75
B5,PRISMA enrichment of interactor (log2),[76],4.66
B6,PRISMA enrichment of interactor (log2),[91],4.82

# Exported with bars between the fields: entries from further up.
binder | measurement | setting | value
B2 | PRISMA enrichment of interactor (log2) | [6] | 6.71
same | PRISMA enrichment of interactor (log2) | [7] | 6.74

# From the supplement of paper PMC10032668
